# Values from PubChem BioAssay AID1159579 (Peter MacCallum Cancer Centre, 2015)
# Test: 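Follow-up screen seeking modulators of motility in lymphatic endothelial cells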 (follow-up of hits)
# Cells: human dermal lymphatic endothelial cells
# Reagent: single siRNA against human genes, 25 nM
# Detection: 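High content images of wound closure area and cell nuclei counts, each the average of two wells, expressed against mock transfection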
# Scale: migration relative to mock: higher = more migration into the scratch; mean nuclei count: higher = more cells remaining
# Call rule: 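a ratio of at most 0.6 or at least 1.3 marks altered migration and an active call; a mean nuclei count under 3300 forces an inactive call regardless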
# Meaning of the calls: active = migration changed (impaired or accelerated); inactive = no migration change, or too few cells
# Here is a random part of about 2,000 reagents tested. Over the whole deposit, 549 (27%) are marked active. 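Some migration ratios are negative; siRNAs with too few cells are inactive whatever their migration ratio.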 The numbers tell different reagents against one gene apart. Not given: the time to read-out.
target,reagent,migration relative to mock,migration and cell number class,mean nuclei count,Outcome
CATSPERT,1,0.78,no change in migration or cell number,6212,inactive
CATSPERT,2,0.53,migration reduced,3412,active
CATSPERT,3,1.06,no change in migration or cell number,6442,inactive
CATSPERT,4,0.54,migration reduced,5858,active
PHKG2,1,0.84,no change in migration or cell number,6486,inactive
PHKG2,2,0.7,no change in migration or cell number,6239,inactive
PHKG2,3,0.94,no change in migration or cell number,6010,inactive
PHKG2,4,0.92,no change in migration or cell number,6080,inactive
CTRL,1,0.78,no change in migration or cell number,5598,inactive
CTRL,2,0.5,migration reduced,3566,active
CTRL,3,0.98,no change in migration or cell number,5604,inactive
CTRL,4,0.7,no change in migration or cell number,5759,inactive
LAYN,1,0.88,no change in migration or cell number,5202,inactive
LAYN,2,0.96,no change in migration or cell number,6706,inactive
LAYN,3,1.04,no change in migration or cell number,4320,inactive
LAYN,4,0.94,no change in migration or cell number,5556,inactive
PLCG1,1,0.44,migration reduced,4699,active
PLCG1,2,0.49,migration reduced,6219,active
PLCG1,3,0.68,no change in migration or cell number,4880,inactive
PLCG1,4,0.63,no change in migration or cell number,5812,inactive
FAM117B,1,1.04,no change in migration or cell number,6036,inactive
FAM117B,2,1.07,no change in migration or cell number,5788,inactive
FAM117B,3,0.64,no change in migration or cell number,3717,inactive
FAM117B,4,1.07,no change in migration or cell number,6554,inactive
SLC60A2,1,0.52,migration reduced,6422,active
SLC60A2,2,0.94,no change in migration or cell number,7064,inactive
SLC60A2,3,1.04,no change in migration or cell number,6460,inactive
SLC60A2,4,0.44,too few cells; migration not scored,2962,inactive
SCN1B,1,0.66,no change in migration or cell number,5548,inactive
SCN1B,2,0.54,migration reduced,4469,active
SCN1B,3,1.09,no change in migration or cell number,5504,inactive
SCN1B,4,0.35,migration reduced,3422,active

Records above whose target name begins with P or p:
target,reagent,migration relative to mock,migration and cell number class,mean nuclei count,Outcome
PHKG2,1,0.84,no change in migration or cell number,6486,inactive
PHKG2,2,0.7,no change in migration or cell number,6239,inactive
PHKG2,3,0.94,no change in migration or cell number,6010,inactive
PHKG2,4,0.92,no change in migration or cell number,6080,inactive
PLCG1,1,0.44,migration reduced,4699,active
PLCG1,2,0.49,migration reduced,6219,active
PLCG1,3,0.68,no change in migration or cell number,4880,inactive
PLCG1,4,0.63,no change in migration or cell number,5812,inactive

The list goes on:
target,reagent,migration relative to mock,migration and cell number class,mean nuclei count,Outcome
FERMT3,1,0.94,no change in migration or cell number,6452,inactive
FERMT3,2,0.85,no change in migration or cell number,6390,inactive
FERMT3,3,1.12,no change in migration or cell number,6140,inactive
FERMT3,4,0.82,no change in migration or cell number,4860,inactive
KRT80,1,0.58,migration reduced,6076,active
KRT80,2,0.6,migration reduced,4346,active
KRT80,3,0.88,no change in migration or cell number,6826,inactive
KRT80,4,0.3,migration reduced,4837,active
PER1,1,0.96,no change in migration or cell number,5074,inactive
PER1,2,1.14,no change in migration or cell number,5694,inactive
PER1,3,0.88,no change in migration or cell number,6339,inactive
PER1,4,0.88,no change in migration or cell number,5516,inactive
FAM209B,1,0.98,no change in migration or cell number,5773,inactive
FAM209B,2,0.83,no change in migration or cell number,6106,inactive
FAM209B,3,0.84,no change in migration or cell number,5298,inactive
FAM209B,4,0.91,no change in migration or cell number,4409,inactive
KRT6B,1,1.08,no change in migration or cell number,7194,inactive
KRT6B,2,0.74,no change in migration or cell number,6062,inactive
KRT6B,3,0.74,no change in migration or cell number,5444,inactive
KRT6B,4,0.86,no change in migration or cell number,5839,inactive
LSR,1,0.26,migration reduced,5458,active
LSR,2,0.72,no change in migration or cell number,5800,inactive
LSR,3,0.63,no change in migration or cell number,5091,inactive
LSR,4,0.79,no change in migration or cell number,5944,inactive
SEPTIN6,1,0.61,no change in migration or cell number,4624,inactive
SEPTIN6,2,-0.6,too few cells; migration not scored,2648,inactive
SEPTIN6,3,0.54,migration reduced,4761,active
SEPTIN6,4,0.74,no change in migration or cell number,4624,inactive
CSNK1G3,1,0.28,migration reduced,4702,active
CSNK1G3,2,0.91,no change in migration or cell number,6058,inactive
CSNK1G3,3,1.15,no change in migration or cell number,6161,inactive
CSNK1G3,4,0.6,migration reduced,5184,active
BTF3,1,0.54,migration reduced,6272,active
BTF3,2,0.88,no change in migration or cell number,6722,inactive
BTF3,3,0.65,no change in migration or cell number,5698,inactive
BTF3,4,0.83,no change in migration or cell number,5100,inactive
